From US20040106773A1 (priority 2003, published 2004)
Some results were stated once for a whole list of compounds, not compound by compound.

Sequences of proteins named here, by UniProt entry; tags and fusion partners are left off. Residues count along the entry.
UniProt P70555, 25-546: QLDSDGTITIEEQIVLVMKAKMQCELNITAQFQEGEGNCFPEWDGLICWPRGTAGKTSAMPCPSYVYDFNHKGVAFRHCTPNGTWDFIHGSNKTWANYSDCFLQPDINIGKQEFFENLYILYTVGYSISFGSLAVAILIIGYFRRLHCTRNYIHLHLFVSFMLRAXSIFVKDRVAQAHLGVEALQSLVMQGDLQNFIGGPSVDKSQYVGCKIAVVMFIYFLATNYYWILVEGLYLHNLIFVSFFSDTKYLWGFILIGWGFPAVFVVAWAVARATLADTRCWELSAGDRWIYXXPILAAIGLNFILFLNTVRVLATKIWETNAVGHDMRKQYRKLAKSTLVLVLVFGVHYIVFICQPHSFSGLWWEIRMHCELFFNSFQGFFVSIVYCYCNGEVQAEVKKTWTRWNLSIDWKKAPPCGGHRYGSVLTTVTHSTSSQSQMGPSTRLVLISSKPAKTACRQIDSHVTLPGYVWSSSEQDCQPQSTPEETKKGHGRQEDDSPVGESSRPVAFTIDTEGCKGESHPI

Target: T1, rat PTH2R (Rattus norvegicus, UniProt P70555)
T1 construct: V5-His (appears only in the vector name); expressed in transfected cells
Experiment: cAMP SPA assay for PTH2R activation, rat PTH2R
Type: cell-based
Details: HEK293 cells expressing rat PTH2R
From the text: HEK293 cells were transfected with rat and human PTH2R and cell lines that stably express the receptors were established and evaluated. One cell line was selected for each rat and human PTH2R and used for all the functional assays. Specifically, HEK293 cells were transfected with pCDNA3.1/V5-His-RatPTH2R plasmid DNA and pCDNA3.1-E/Uni-lacZ-HumanPTH2R plasmid DNA using FuGENE 6 transfection reagent (Roche Molecular Biochemicals). Three days after transfection, cells were put under selection with 800 μg/ml geneticin (G418, Gibco BRL). After three weeks of selection, single colonies were cloned using cloning cylinders. Cloned colonies were scaled up to T25 flasks. More than 10 cell lines for each plasmid were tested for function in the cAMP SPA assay.
HEK293PTH2R cells were seeded in a 96-well poly-D-lysine coated plate at 100,000 cells per well and cultured overnight. After washing with 200 μl of PBS and treating with 100 μl of 300 nM IBMX in assay medium (MEM without phenol red and FBS) at 37° C. for 10 min. The assay medium was then aspirated and the cells were washed with PBS. The cellular of cAMP was measured using cAMP SPA Direct Screening (Amersham/Pharmacia RPA559). Each concentration of ligand was repeated as triplicate.

With rat PTH(1-34) the “maximal level of cAMP” value was “up to 29 pmol/100,000 cells”.
